Some results were stated once for a whole list of compounds, not compound by compound.
System: A. thaliana (Col-0) plant
Type: in vivo, Arabidopsis thaliana
Settings: hydraphile from about 50 μM to about 100 μM; toxic effects
From the text: The effect treating a plant with a composition comprising a synthetic amphiphile on root morphology or other physical characteristics or attributes can be quantitated. For example, a change in primary root length can be determined by measuring the difference, if any, in primary root length of a plant treated with the composition compared to the average of a control sample of plants of the same type grown under identical conditions in the absence of the composition. A change in lateral root density can be determined by comparing the lateral root density of a plant treated with the composition to the average lateral root density of a sample grown under identical conditions in the absence of the composition. Lateral root density can be determined by dividing the number of lateral roots by the length of the primary root. In certain embodiments for any quantitated characteristic or attribute, the average value of the control is the average of a statistically significant population of control plants. For example, in certain illustrative embodiments disclosed herein, three trials of about 20 plants each were used to determine the average of the control.
Illustrative of certain embodiments, approximately 60 plants were grown on PNS media (no additives) and root lengths and the number of lateral roots were recorded for each. […]

Compound | Inhibition of primary root development
c1ccc(CN2CCOCCOCCN(CCCCCCCCCCCCCCN3CCOCCOCCN(CCCCCCCCCCCCCCN4CCOCCOCCN(Cc5ccccc5)CCOCCOCC4)CCOCCOCC3)CCOCCOCC2)cc1 [C14 hydraphile (2)] | greater than 90%
c1ccc(CN2CCOCCOCCN(CCCCCCCCCCCCCCCCN3CCOCCOCCN(CCCCCCCCCCCCCCCCN4CCOCCOCCN(Cc5ccccc5)CCOCCOCC4)CCOCCOCC3)CCOCCOCC2)cc1 [C16 hydraphile (3)] | greater than 90%

Source: patent US10548319B2, “Compositions and methods for synthetic amphiphile-induced changes in plant root morphology” (The Curators of the University of Missouri, priority 2014, dated 2020)
